{
  "source": "patent US10912815B2",
  "about": "“Inhibitors of mitochondrial fission and methods of use thereof” (The Board of Trustees of the Leland Stanford Junior …, priority 2011, dated 2021)",
  "tested_on": "SH-SY5Y cells",
  "experiment": "Mitochondrial morphology/fragmentation in SH-SY5Y cells (TOM20 staining)",
  "assay_type": "cell-based, human",
  "conditions": "p<0.01, n=3, FIG. 4A, 4B",
  "procedure": "To determine effects of P110 on mitochondrial morphology in response to mitochondrial stresses, an immuno-staining approach was used. In one experiment, SH-SY5Y neuronal cells were treated with Drp1 peptides or Drp1 siRNA followed by treatment of MPP+. The cells were then stained with TOM20 and Hoechst stain.\nIn another experiment, cultured SH-SY5Y cells were treated with P110 (1 μM) for 30 min followed by incubation with MPP+(2 mM, 4 hrs) or CCCP (5 uM, 30 min). The cells were then stained with anti-Tom 20 antibody (green) and Hoechst stain (scale bar 0.5 μm). Mitochondrial morphology was analyzed using 63× oil lens. The data were analyzed and are presented as a histogram in which the percentage of cells with fragmented mitochondria relative to the total number of cells is presented as the mean±S.E. of 3 independent experiments. At least 200 cells per group were counted.",
  "note": "Not every detail of the peptide structures is certain; ends, links or a residue may be inferred. Residues, ends and D or L forms follow the SMILES beside them.",
  "data": [
    {"smiles": "CC(C)C[C@H](NC(=O)[C@H](CCCCN)NC(=O)CNC(=O)CNC(=O)[C@H](Cc1ccc(O)cc1)NC(=O)CNC(=O)[C@H](CCCNC(=N)N)NC(=O)[C@H](CCCCN)NC(=O)[C@H](CCCCN)NC(=O)[C@H](CCCNC(=N)N)NC(=O)[C@H](CCCNC(=N)N)NC(=O)[C@H](CCC(N)=O)NC(=O)[C@H](CCCNC(=N)N)NC(=O)[C@H](CCCNC(=N)N)NC(=O)[C@@H](N)CCCNC(=N)N)C(=O)N[C@@H](CO)C(=O)N[C@@H](C)C(=O)N[C@@H](CCCNC(=N)N)C(=O)N[C@@H](CCC(=O)O)C(=O)N[C@@H](CCC(N)=O)C(=O)N[C@@H](CCCNC(=N)N)C(=O)N[C@@H](CC(=O)O)C(N)=O", "note": "[P109] (H-RRRQRRKKRGYGGKLSAREQRD-NH2)", "values": [
      {"measurement": "reduction of mitochondrial fragmentation in cells exposed to MPP+", "result": 70, "unit": "%"}
    ]}
  ]
}
